“Also recorded” adds a separate entry of the source. For at least one compound, name, drawing or mass did not settle the structure.
Columns and labels:
κ opioid receptor = κ opioid receptor (Homo sapiens (Human), UniProt P41145); type: binding
[1] = test system: morphine-induced conditioned place preference behavior in rats; assay: morphine-induced conditioned place preference behavior, single oral administration before test (Example 12); type: in vivo, SD rats; settings: single oral administration of 70 mg/kg
μ opioid receptor = μ opioid receptor (Homo sapiens (Human), UniProt P35372); assay: radioligand-receptor binding assay, 3H-DAMGO displacement; settings: CHO cell membranes, listed as AK
[2] = test system: formation of conditioned place preference induced by morphine in rats; assay: formation of conditioned place preference induced by morphine, concomitant administration (Example 13); type: in vivo, SD rats; settings: 70 mg/kg orally, concomitantly with morphine
[3] = test system: morphine-dependent animals; assay: naloxone-precipitated morphine-withdrawal jumping (Example 10); type: in vivo, Kunming mice; settings: 0.5 g/kg
morphine-dependent mice = assay: morphine-induced physical dependence, withdrawal jumping (Example 15); type: in vivo, Kunming mice; settings: same dosage, 1 g/kg

**Q.** With `CC(=O)O[C@H]1[C@H](OC(C)=O)[C@H]([C@@](C)(O)CC[C@@H]2OC(C)(C)[C@H]3CC[C@]2(C)O3)[C@@]2(C)CC[C@@H]3OC(C)(C)[C@H](OC(C)=O)CC[C@@]3(C)[C@H]12` [3,12,13-triacetyl limaxol A, (3R,5aS,7aS,8R,9R,10R,10aR,10bS)-dodecahydro-8-((S)-2-hydroxy-4-((1S,2S,5R)-1,4,4-trimethyl-3,8-dioxa-bicyclo[3.2.1]octan-2-yl)butan-2-yl)-4,4,7a,10b-tetramethyl-1H-indeno[5,4-b]oxepine-3,9,10-triol triacetate] as the molecule, how does the “affinity for κ opioid receptor (in words)” value (κ opioid receptor) read?
**A.** low affinities; also recorded: no detectable affinities

**Q.** What about the “effect on morphine-induced conditioned place preference behavior (in words)” value [1] of the same molecule?
**A.** cannot affect

**Q.** And the “affinity for μ opioid receptor (in words)” value (μ opioid receptor)?
**A.** low affinities; also recorded: no detectable affinities

**Q.** What about the “effect on formation of conditioned place preference induced by morphine (in words)” value [2] of the same molecule?
**A.** cannot affect

**Q.** And the “withdrawal jumping symptoms versus morphine model group (in words)” value ([3]; 1 hour after intragastric administration)?
**A.** significant inhibitory effect; also recorded: significantly reduced

**Q.** What about the “withdrawal jumping symptoms versus morphine model group (in words)” value ([3]; 3 hours after intragastric administration) of the same molecule?
**A.** tended to be reduced; also recorded: inhibitory trend

**Q.** What about the “inhibition rate relative to that of limaxol A” value (morphine-dependent mice) of the same molecule?
**A.** more than twice

Reference: US11912716B2 (priority 2018, dated 2024)
